Some results were stated once for a whole list of compounds, not compound by compound. At least one structure is not confirmed: it was looked up by name or label, or the drawing left a doubt.
Assay: Stability test in human serum
Type: in vitro ADME
Conditions: incubated with human serum at 37° C. for 6 hours
Protocol: The stability test in human serum is to test the stability when it comes into contact with human serum after administration to the human body, and the stability in the body is partly tested in vitro.
(§1) In order to examine the stability of [^99mTc]Tc-15 according to the present invention in human serum, 3.7 MBq of [^99mTc]Tc-15 (100 μL) prepared in Example 3 was added to 1 mL of human serum, mixed well, and then cultured at 36.5° C. with stirring. After 2 hours, the reaction mixture was analyzed by ITLC.
as §1, with “of [^99mTc]Tc-16” for “of [^99mTc]Tc-15”, “Example 4” for “Example 3”

SMILES | stability in human serum [%]
[99Tc+].[C-]#[N+]CCC(=O)NCCCCCC(=O)NCCCCC(NC(=O)N[C@@H](CCC(=O)O)C(=O)O)C(=O)O.[C-]#[N+]CCC(=O)NCCCCCC(=O)NCCCCC(NC(=O)N[C@@H](CCC(=O)O)C(=O)O)C(=O)O.[C-]#[N+]CCC(=O)NCCCCCC(=O)NCCCCC(NC(=O)N[C@@H](CCC(=O)O)C(=O)O)C(=O)O.[C-]#[O+].[C-]#[O+].[C-]#[O+] (some centres unmarked) [[^99mTc]Tc-15] | ≥ 98
[99Tc+].[C-]#[N+]CCC(=O)NCCCCCC(=O)NC(Cc1ccccc1)C(=O)N[C@H](Cc1ccccc1)C(=O)NCCCCCC(=O)NCCCCC(NC(=O)N[C@@H](CCC(=O)O)C(=O)O)C(=O)O.[C-]#[N+]CCC(=O)NCCCCCC(=O)NC(Cc1ccccc1)C(=O)N[C@H](Cc1ccccc1)C(=O)NCCCCCC(=O)NCCCCC(NC(=O)N[C@@H](CCC(=O)O)C(=O)O)C(=O)O.[C-]#[N+]CCC(=O)NCCCCCC(=O)NC(Cc1ccccc1)C(=O)N[C@H](Cc1ccccc1)C(=O)NCCCCCC(=O)NCCCCC(NC(=O)N[C@@H](CCC(=O)O)C(=O)O)C(=O)O.[C-]#[O+].[C-]#[O+].[C-]#[O+] (some centres unmarked) [[^99mTc]Tc-16] | ≥ 98

Reference: patent publication US12486294B2, “Radioisotope labeled compound for imaging or treatment of prostate cancer” (SEOUL NATIONAL UNIVERSITY R&DB FOUNDATION, priority 2019, dated 2025)
